In the assay the target is full length MUC1 (Homo sapiens, UniProt P15941). Description: epitope test by CAR-T degranulation against unmodified and MUC1-transfected cells, FIG. 15.

The chains behind the UniProt entries cited, without tags or fusion partners. Residues count along the entry.
UniProt P15941, residues 24-1255: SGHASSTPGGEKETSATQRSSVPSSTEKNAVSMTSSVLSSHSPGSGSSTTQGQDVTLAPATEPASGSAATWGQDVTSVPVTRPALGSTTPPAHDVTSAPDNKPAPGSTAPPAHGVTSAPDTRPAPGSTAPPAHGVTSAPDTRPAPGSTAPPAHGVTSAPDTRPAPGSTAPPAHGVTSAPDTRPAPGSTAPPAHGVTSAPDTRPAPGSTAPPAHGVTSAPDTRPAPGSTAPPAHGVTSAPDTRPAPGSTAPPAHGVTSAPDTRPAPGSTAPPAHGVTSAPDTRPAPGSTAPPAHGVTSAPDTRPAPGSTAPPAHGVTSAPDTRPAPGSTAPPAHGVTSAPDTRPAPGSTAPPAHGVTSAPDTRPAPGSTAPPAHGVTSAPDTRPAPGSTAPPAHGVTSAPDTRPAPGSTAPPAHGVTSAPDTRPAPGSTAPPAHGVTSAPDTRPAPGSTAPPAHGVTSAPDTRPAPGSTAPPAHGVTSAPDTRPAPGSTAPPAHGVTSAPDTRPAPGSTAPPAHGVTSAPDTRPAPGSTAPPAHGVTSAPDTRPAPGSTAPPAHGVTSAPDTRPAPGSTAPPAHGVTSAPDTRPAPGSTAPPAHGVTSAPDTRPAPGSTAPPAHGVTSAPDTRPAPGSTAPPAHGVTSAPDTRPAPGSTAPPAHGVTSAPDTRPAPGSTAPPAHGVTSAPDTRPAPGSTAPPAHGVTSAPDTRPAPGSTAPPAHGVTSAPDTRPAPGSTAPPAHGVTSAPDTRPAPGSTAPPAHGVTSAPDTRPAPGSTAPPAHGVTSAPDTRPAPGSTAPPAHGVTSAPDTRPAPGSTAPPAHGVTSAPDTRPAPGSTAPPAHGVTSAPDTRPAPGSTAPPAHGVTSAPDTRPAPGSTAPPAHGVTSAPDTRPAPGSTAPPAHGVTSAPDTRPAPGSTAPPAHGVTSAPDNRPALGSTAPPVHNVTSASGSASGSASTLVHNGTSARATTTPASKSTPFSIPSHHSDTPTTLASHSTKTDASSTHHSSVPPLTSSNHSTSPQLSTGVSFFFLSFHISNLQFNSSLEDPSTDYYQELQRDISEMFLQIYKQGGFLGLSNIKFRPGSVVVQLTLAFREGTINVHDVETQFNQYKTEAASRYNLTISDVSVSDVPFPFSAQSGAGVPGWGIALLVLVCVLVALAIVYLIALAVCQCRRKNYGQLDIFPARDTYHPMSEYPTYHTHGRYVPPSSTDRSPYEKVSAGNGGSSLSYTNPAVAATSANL

Our source for the binding values is patent US20190328784A1, “CHIMERIC ANTIGEN RECEPTORS (CARS) SPECIFIC FOR MUC1 AND METHODS FOR THEIR USE” (Poseida Therapeutics, Inc., priority 2016, published 2019).

These are yes or no findings as the source states them, for the method shown. Some results given as binding are weak or reduced against the parent protein; the word gives no strength.

B1: F1C-HL CAR (MUC1-scFv chimeric antigen receptor) (scFv, not shown: a dimerising Fc or GST)
scFv: QITLKESGPGILQPSQTLSLTCSFSGFSLSTSGMGVSWIRQPSGKGLEWLSHIYWDDDKRYNPSLKSRLSISKDTSRNQVFLKITSVDTADTATYYCAPGVSSWFPYWGPGTLVTVSAGGGGSGGGGSGGGGSSIVMTQTPKFLPVSAGDRVTVTCKASQSVGNYVAWYQQKPGQSPKLLIYFASNRYSGVPDRFTGSGSGTDFTFTISSVQVEDLAVYFCQQHYIFPYTFGSGTKLEIK
Turning to B1, the binding result is recorded as “binds”.
